Reference: the supplement of paper PMC5770031
The other results are listed elsewhere or left out. Single values are uncertain here, since repeats match poorly.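 ATM8/balancer (normal ATM) heterozygous flies were crossed on treated food; parents laid eggs 5–6 days, offspring developed ~12 days, so parents and larvae ingested compound. Readout: fraction of emerged adults homozygous for ATM8 versus 2% DMSO controls. Compounds were neutral at 10–20% homozygotes, harmful below 10%, helpful above 20%.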

System: Drosophila melanogaster ATM8 (temperature-sensitive ATM allele)
Assay: fraction of eclosed F1 progeny that are homozygous ATM8 (rescue of developmental lethality); higher = more rescue of ATM8 developmental lethality; extreme values may be limits of the assay
Details: compound concentration applied to food 0.2 mM; 21 °C

Compound	fraction of eclosed F1 progeny that are homozygous ATM8
C[C@@H]1C[C@H]2[C@@H]3C[C@H](F)C4=CC(=O)C=C[C@]4(C)[C@@]3(F)[C@@H](O)C[C@]2(C)[C@@]1(O)C(=O)CO	0.163
CC[C@H](/C=C/[C@@H](C)[C@H]1CC[C@H]2[C@@H]3CC=C4C[C@@H](O)CC[C@]4(C)[C@H]3CC[C@]12C)C(C)C	0.312
O=C(O)c1cn(-c2ccc(F)cc2)c2cc(N3CCNCC3)c(F)cc2c1=O	0.212
C[C@@H](CO)NC(=O)[C@@H]1C=C2c3cccc4[nH]cc(c34)C[C@H]2N(C)C1	0
Clc1ccc(C(OCCN2CCCCC2)c2ccccc2)cc1 (stereo not drawn)	0.255
COC(=O)[C@H](c1ccccc1Cl)N1CCc2sccc2C1	0.25
COCCCC/C(=N\OCCN)c1ccc(C(F)(F)F)cc1	0
COc1cc(OC)c2c(=O)c(OC)c(-c3ccccc3)oc2c1	0.0952
C[C@H](N[C@@H](CCc1ccccc1)C(=O)O)C(=O)N1CCC[C@H]1C(=O)O	0.0317
CN(C)[C@@H]1C(O)=C(C(N)=O)C(=O)[C@@]2(O)C(O)=C3C(=O)c4c(O)cccc4[C@@](C)(O)[C@H]3C[C@@H]12	0.121
Oc1c(Br)cc(Br)c2cccnc12	0.119
C[C@]12CC[C@H](O)C[C@H]1CC[C@@H]1[C@@H]2C[C@@H](O)[C@]2(C)[C@@H](C3=CC(=O)OC3)CC[C@]12O	0.176
COc1ccc(-c2coc3cc(O)ccc3c2=O)cc1	0.093
NCCc1c[nH]c2ccccc12	0.25
NC(=O)c1ccccc1O	0.2
COc1ccc(C(=O)CCC(=O)O)c2ccccc12	0.22
Nc1nc(F)nc2c1ncn2[C@@H]1O[C@H](COP(=O)(O)O)[C@@H](O)[C@@H]1O	0.113
CCOC(=O)N1CCC(=C2c3ccc(Cl)cc3CCc3cccnc32)CC1	0.224
COc1cc2c(cc1OC)C1C(=O)c3c(O)cc4c(c3OC1CO2)C=CC(C)(C)O4 (stereo not drawn) [alpha-TOXICAROL (dl)]	0.143
CC[C@H]1OC(=O)[C@H](C)[C@@H](O[C@H]2C[C@@](C)(OC)[C@@H](O)[C@H](C)O2)[C@H](C)[C@@H](O[C@@H]2O[C@H](C)C[C@H](N(C)C)[C@H]2O)[C@](C)(O)C[C@@H](C)C(=O)[C@H](C)[C@@H](O)[C@]1(C)O	0.0323
CC(C(=O)O)c1ccc(CC2CCCC2=O)cc1 (stereo not drawn)	0.175
CC1=C(/C=C/C(C)=C/C=C/C(C)=C/C=C/C=C(C)/C=C/C=C(C)/C=C/C2=C(C)CCCC2(C)C)C(C)(C)CCC1 [beta-CAROTENE [2mM]]	0.316
CC(=O)OCC(=O)[C@H]1CC[C@H]2[C@@H]3CC=C4C[C@@H](O)CC[C@]4(C)[C@H]3CC[C@]12C	0.255
NC(=O)C[S+]([O-])C(c1ccccc1)c1ccccc1 (stereo not drawn)	0.324

18 structures already listed, sorted by count of non-hydrogen atoms, rising.
Compound	fraction of eclosed F1 progeny that are homozygous ATM8
NC(=O)c1ccccc1O	0.2
NCCc1c[nH]c2ccccc12	0.25
Oc1c(Br)cc(Br)c2cccnc12	0.119
CC(C(=O)O)c1ccc(CC2CCCC2=O)cc1 (stereo not drawn)	0.175
COc1ccc(C(=O)CCC(=O)O)c2ccccc12	0.22
COc1ccc(-c2coc3cc(O)ccc3c2=O)cc1	0.093
COC(=O)[C@H](c1ccccc1Cl)N1CCc2sccc2C1	0.25
COCCCC/C(=N\OCCN)c1ccc(C(F)(F)F)cc1	0
COc1cc(OC)c2c(=O)c(OC)c(-c3ccccc3)oc2c1	0.0952
Nc1nc(F)nc2c1ncn2[C@@H]1O[C@H](COP(=O)(O)O)[C@@H](O)[C@@H]1O	0.113
C[C@H](N[C@@H](CCc1ccccc1)C(=O)O)C(=O)N1CCC[C@H]1C(=O)O	0.0317
CC(=O)OCC(=O)[C@H]1CC[C@H]2[C@@H]3CC=C4C[C@@H](O)CC[C@]4(C)[C@H]3CC[C@]12C	0.255
O=C(O)c1cn(-c2ccc(F)cc2)c2cc(N3CCNCC3)c(F)cc2c1=O	0.212
C[C@@H]1C[C@H]2[C@@H]3C[C@H](F)C4=CC(=O)C=C[C@]4(C)[C@@]3(F)[C@@H](O)C[C@]2(C)[C@@]1(O)C(=O)CO	0.163
CC[C@H](/C=C/[C@@H](C)[C@H]1CC[C@H]2[C@@H]3CC=C4C[C@@H](O)CC[C@]4(C)[C@H]3CC[C@]12C)C(C)C	0.312
CN(C)[C@@H]1C(O)=C(C(N)=O)C(=O)[C@@]2(O)C(O)=C3C(=O)c4c(O)cccc4[C@@](C)(O)[C@H]3C[C@@H]12	0.121
CC1=C(/C=C/C(C)=C/C=C/C(C)=C/C=C/C=C(C)/C=C/C=C(C)/C=C/C2=C(C)CCCC2(C)C)C(C)(C)CCC1 [beta-CAROTENE [2mM]]	0.316
CC[C@H]1OC(=O)[C@H](C)[C@@H](O[C@H]2C[C@@](C)(OC)[C@@H](O)[C@H](C)O2)[C@H](C)[C@@H](O[C@@H]2O[C@H](C)C[C@H](N(C)C)[C@H]2O)[C@](C)(O)C[C@@H](C)C(=O)[C@H](C)[C@@H](O)[C@]1(C)O	0.0323

(further entries)

Compound	fraction of eclosed F1 progeny that are homozygous ATM8
CC1=CC(=O)[C@H]2C(C)(C)CCC[C@]2(C)[C@@]1(O)CCc1ccoc1	0.0847
NCCCCC(=O)O	0.0909
c1ccc(CC2=NCCN2)cc1	0.217
OCCN1CCN(CCCN2c3ccccc3Sc3ccc(C(F)(F)F)cc32)CC1	0
CC(C)(Oc1ccc(CCNC(=O)c2ccc(Cl)cc2)cc1)C(=O)O	0.25
O=C(O)CCc1nc(-c2ccccc2)c(-c2ccccc2)o1	0.176
CC1(C)C=Cc2c(c3c(c4c(=O)c(-c5ccc(O)cc5)coc24)OC(C)(C)CC3)O1	0.115
CC(C)[C@@H](C)/C=C/[C@@H](C)[C@H]1CC[C@H]2C3=CC=C4C[C@@H](O)CC[C@]4(C)[C@H]3CC[C@]12C	0.0244
O=C1c2ccccc2C(=O)C1c1ccccc1	0.188
Clc1ccc2c(c1)C(N1CCNCC1)=Nc1ccccc1O2	0
Cc1ccc(N(CC2=NCCN2)c2cccc(O)c2)cc1	0.105
COc1cc2occ(-c3ccc(OC)c(OC)c3OC)c(=O)c2cc1OC	0.0299
CCc1ccc(CCOc2ccc(CC3SC(=O)NC3=O)cc2)nc1 (stereo not drawn)	0.129
O=C(O)c1ccccc1-c1c2cc(I)c(=O)c(I)c-2oc2c(I)c(O)c(I)cc12	0.0484
COc1cc(C)c(C(=O)O)c(O)c1	0.233
CC(=O)C1=C(O)C=C2Oc3c(C(C)=O)c(O)c(C)c(O)c3C2(C)C1=O (stereo in doubt)	0.312
CO[C@H]1/C=C/O[C@@]2(C)Oc3c(C)c(O)c4c(O)c(c(/C=N/N5CCN(C)CC5)c(O)c4c3C2=O)NC(=O)/C(C)=C\C=C\[C@H](C)[C@H](O)[C@@H](C)[C@@H](O)[C@@H](C)[C@H](OC(C)=O)[C@@H]1C	0.0333
C[C@@H]1CC[C@H]2C(C)(C)[C@H]3C[C@@]12CC[C@@]3(C)O	0
Cc1c(Cl)cccc1Nc1ccccc1C(=O)O	0.14
CCCSc1ccc2[nH]c(NC(=O)OC)nc2c1	0.0263
CC[C@@H](C(=O)O)[C@@H]1O[C@@H]([C@@H](C)[C@H](O)[C@H](C)C(=O)[C@H](CC)[C@H]2O[C@]3(C=C[C@@H](O)[C@]4(CC[C@@](C)([C@H]5CC[C@](O)(CC)[C@H](C)O5)O4)O3)[C@H](C)C[C@@H]2C)[C@@H](C)C[C@@H]1C	0.0926
CCCc1ncc(C[n+]2ccccc2C)c(N)n1	0.0909
C=CC(C)(O)CCC=C(C)CCC=C(C)C (mixture of isomers)	0.171
CC(C(=O)O)c1cccc(Oc2ccccc2)c1 (stereo not drawn)	0.157

Compound	fraction of eclosed F1 progeny that are homozygous ATM8
COc1ccccc1-c1coc2cc(O)ccc2c1=O	0.08
Oc1ccc(C2CNCCc3c2cc(O)c(O)c3Cl)cc1 (stereo not drawn)	0
CC(=O)N[C@@H](Cc1c[nH]c2ccccc12)C(=O)O	0.295
COC(=O)C[C@H]1C(C)(C)[C@@H](O)[C@@H]2CC3=C4C=C(OC)O[C@@H](c5ccoc5)[C@]4(C)CCC3[C@@]1(C)C2=O (stereo partly drawn) [3-DEOXO-3beta-HYDROXYMEXICANOLIDE 16-ENOL ETHER]	0.0952
COc1ccc2c(C)cc(=O)oc2c1	0.0476
COc1cc(OC)c2c(=O)cc(-c3ccccc3)oc2c1	0.263
COc1cc(C(=S)N2CCOCC2)ccc1O	0.069
COc1c2c(cc3c1OCO3)CC[N+](C)=C2	0.0571
O=C1OC(c2ccc(O)cc2)(c2ccc(O)cc2)c2ccccc21	0.231
C=CCc1ccc(O)c(OC)c1	0.184
CC(=O)OCC(=O)NCCCOc1cccc(CN2CCCCC2)c1	0.0746
CCn1cc(C(=O)O)c(=O)c2cc(F)c(N3CCNCC3)nc21	0.0465
CC(CCC(=O)O)[C@H]1CCC2C3C[C@H](O)[C@@H]4C[C@H](O)CC[C@]4(C)C3CC[C@@]21C (stereo partly drawn) [alpha-HYDROXYDEOXYCHOLIC ACID]	0.156
COc1cc(O)c(C(=O)/C=C/c2ccc(OC)c(O)c2)c(OC)c1	0.179
Oc1ccc2c(c1)OC[C@]1(O)Cc3cc(O)c(O)cc3[C@H]21	0.196
C[C@]12CCC(=O)C=C1CCc1ccc(O)cc12	0.184
CCCCCN(C)CCC(O)(P(=O)(O)O)P(=O)(O)O	0.14
Cc1cccc(C)c1NC1=NCCCS1	0.111
C1N2CN3CN1CN(C2)C3	0.093
C[Se]CC[C@H](N)C(=O)O	0.0952
Cc1ncc([N+](=O)[O-])n1C	0.208
c1ccc2c(c1)CCCC2C1=NCCN1 (stereo not drawn)	0.0278
C[C@@H](O)[C@H]1C(=O)N2C(C(=O)O)=C(SCCNC=N)C[C@H]12	0.258
O=c1cc(-c2ccc(O)cc2)oc2cc(O[C@@H]3O[C@H](CO)[C@@H](O)[C@H](O)[C@H]3O[C@@H]3OC[C@](O)(CO)[C@H]3O)cc(O)c12	0.171

Compound	fraction of eclosed F1 progeny that are homozygous ATM8
C[C@](N)(Cc1ccc(O)cc1)C(=O)O [alpha-METHYL-L-TYROSINE]	0.115
Cc1cccc(C)c1NC(=O)c1ccccc1C(=O)O	0.28
O=C1CC(c2ccccc2)Oc2ccccc21 (stereo not drawn)	0.0385
CS(=O)(=O)c1ccc([C@@H](O)[C@@H](CF)NC(=O)C(Cl)Cl)cc1	0.146
C=C(CC)C(=O)c1ccc(OCC(=O)O)c(Cl)c1Cl	0
CC(C)c1nc(N(C)S(C)(=O)=O)nc(-c2ccc(F)cc2)c1/C=C/[C@@H](O)C[C@@H](O)CC(=O)O	0.288
C[N+](C)(C)CCOP(=O)(O)OP(=O)([O-])OC[C@H]1O[C@@H](n2ccc(N)nc2=O)[C@H](O)[C@@H]1O	0
Nc1ccc(S(=O)(=O)NC(=O)c2ccccc2)cc1	0.152
CC[C@H](CC[C@@H](C)[C@H]1CC[C@H]2[C@@H]3CC=C4C[C@@H](OC(C)=O)CC[C@]4(C)[C@H]3CC[C@]12C)C(C)C	0.16
C[C@]12CC[C@@H](O)C[C@H]1CCc1ccccc12 [3alpha-HYDROXY-4,4-BISNOR-8,11,13-PODOCARPATRIENE]	0.0645
CCOC(=O)[C@H](CCc1ccccc1)N[C@@H](C)C(=O)N1[C@H](C(=O)O)C[C@H]2CCCC[C@@H]21	0.234
O=C(O[C@@H]1Cc2c(O)cc(O)cc2O[C@@H]1c1cc(O)c(O)c(O)c1)c1cc(O)c(O)c(O)c1	0.1
CC[C@H]1CN2CCc3cc(OC)c(OC)cc3[C@@H]2C[C@@H]1C[C@H]1NCCc2cc(OC)c(OC)cc21	0.118
CC(C(=O)O)[C@H]1CCC2C3CC=C4C[C@@H](O)CC[C@]4(C)C3CC[C@@]21C (stereo partly drawn) [3beta-HYDROXY-23,24-BISNORCHOL-5-ENIC ACID]	0.161
COc1c(Cl)c(C)c(C(=O)Oc2cc(C)c(C(=O)O)c(O)c2)c(O)c1Cl	0.146
CCN(CC)CCNC(=O)c1ccc(NC(C)=O)cc1	0.273
CN1C(=O)CC(C)(c2ccccc2)C1=O (stereo not drawn)	0.05
N[C@H](Cc1ccccc1)C(=O)O	0.162
O=C1C=C2CC3(O)COc4cc(O)ccc4C3=C2C=C1O (stereo not drawn)	0.137
O=c1c(-c2ccc(O)cc2)coc2cc(O)cc(O)c12	0.265
CCCc1nc(C)c2c(O)nc(-c3cc(S(=O)(=O)N4CCN(CC)CC4)ccc3OCC)nn12	0.242
